## Results from one PubChem assay

Data taken from PubChem BioAssay AID1224904, deposited by Broad Institute (2016).

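293T-iDUX4 dual-reporter cells; luminescence of the tet-on Italica luciferase control is read after 24 h. The test concentration is not given here. Percent change in the Italica control signal; more negative values mean stronger inhibition, which points to nonspecific, tet-on or cytotoxic effects.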

Values are in %. Common to all entries: measured here: Italica tet-on control reporter. This is a side read-out of the assay, for part of the compounds, not drawn at random.

- COc1ccc2c3c([nH]c2c1)[C@H](CO)N(Cc1ccc(Cl)cc1)CC31CN(Cc2ccccc2)C1 | activity change 0.002953%
- O=C1CN(S(=O)(=O)Cc2ccccc2)C[C@H]2[C@@H](c3ccc(C#Cc4ccccc4)cc3)[C@H](CO)N12 | activity change -7.735%
- O=C(C[C@@H]1CC[C@@H]2[C@H](COC[C@H](O)CN2Cc2cc(F)ccc2F)O1)N[C@@H]1CCN(Cc2ccccc2)C1 | activity change -27.01%
- COc1ccc(NC(=O)Nc2ccc3c(c2)[C@@H]2C[C@H](CC(=O)NCCc4ccccc4)O[C@@H](CO)[C@@H]2O3)cc1 | activity change -0.6133%
- COc1ccc2c3c(n(C)c2c1)[C@H](CO)N(CC1CC1)CC31CN(S(=O)(=O)c2cccs2)C1 | activity change -20.64%
- COc1ccc2c3c(n(C)c2c1)[C@@H](CO)N(C(=O)Nc1ccc(F)cc1)CC31CN(C(=O)c2cccnc2)C1 | activity change -14.33%
- O=C(C1CCCC1)N1CC2(C1)[C@H](c1ccccc1)[C@@H](CO)N2Cc1ccc(Cl)cc1 | activity change -25.91%
- N#Cc1ccc(-c2ccc3c(c2)[C@H]2[C@H](CCN2C(=O)c2ccccc2F)[C@H](CO)N3)cc1 | activity change -4.719%
- CC(C)[C@@H](C)NC(=O)N(C)C[C@H]1OCc2ccccc2-c2c(n(C)c3ccccc23)C(=O)N([C@H](C)CO)C[C@@H]1C | activity change -27.67%
- Cc1ccccc1S(=O)(=O)N1C[C@H](O)COC[C@H]2O[C@@H](CC(=O)NCCc3ccccc3)CC[C@@H]21 | activity change -2.135%
- COc1ccc2c3c(n(C)c2c1)[C@@H](CO)N(Cc1ccc(Cl)cc1)CC31CN(CC2CC2)C1 | activity change -34.89%
- COc1ccccc1-c1ccc2c(c1)[C@H]1[C@H](CCN1C(=O)C1CCC1)[C@H](CO)N2 | activity change -71.2%
- CO[C@@H]1CN(C)C(=O)c2cc(NC(=O)Nc3ccccc3F)ccc2OC[C@H](C)N(CCC(F)(F)F)C[C@H]1C | activity change -7.361%
- OC[C@@H]1Nc2ccc(-c3ccccc3)cc2[C@@H]2[C@H]1CCN2Cc1ccccc1F | activity change -22.33%
- COc1ccc(C#Cc2ccc([C@H]3[C@@H](CO)N4CCCCN(C(=O)Cc5cccnc5)C[C@H]34)cc2)cc1 | activity change -34.56%
- COc1ccc(C#Cc2ccc([C@@H]3[C@H](CO)N4CCCCN(C(=O)Nc5ccccc5F)C[C@@H]34)cc2)cc1 | activity change -63.73%
- COc1ccc(C#Cc2ccc([C@@H]3[C@@H](CO)N4CCCCN(C(=O)Cc5cccnc5)C[C@H]34)cc2)cc1 | activity change -21.14%
- CC(C)[C@@H](C)NC(=O)N(C)C[C@@H]1OCc2ccccc2-c2c(n(C)c3ccccc23)C(=O)N([C@@H](C)CO)C[C@@H]1C | activity change -41.94%
- C[C@H]1CN([C@@H](C)CO)S(=O)(=O)c2ccc(/C=C/c3ccccc3)cc2O[C@@H]1CN(C)C(=O)Nc1cccc(F)c1 | activity change -34.4%
- COc1cccc(C#Cc2ccc([C@H]3[C@@H](CO)N4C(=O)CN(C(=O)c5ccccc5)C[C@@H]34)cc2)c1 | activity change -9.31%
- O=C(C[C@H]1CC[C@H]2[C@@H](COC[C@H](O)CN2Cc2ccc(Oc3ccccc3)cc2)O1)N1CCc2ccccc2C1 | activity change -18.25%
- O=C(C[C@H]1CC[C@@H]2[C@H](COC[C@H](O)CN2Cc2ccc(Oc3ccccc3)cc2)O1)N1CCOCC1 | activity change -16.54%
- N#Cc1cccc(-c2ccc3c(c2)[C@@H]2[C@@H](CCN2S(=O)(=O)c2ccc(F)cc2)[C@H](CO)N3)c1 | activity change -46.39%
- COc1cccc(S(=O)(=O)Nc2ccc3c(c2)[C@@H]2C[C@@H](CC(=O)NCc4cccc(F)c4)O[C@@H](CO)[C@@H]2O3)c1 | activity change -17.39%
- COc1ccccc1S(=O)(=O)N1C[C@@H]2N[C@H](C1)C2c1ccc(-c2cccc(F)c2)cc1 (stereo partly specified) | activity change -10.24%
- CN(C)Cc1cn(CC[C@@H]2CC[C@H](N)[C@@H](CO)O2)nn1 | activity change 1.991%
- COc1ccc2c3c(n(C)c2c1)[C@H](CO)NCC31CN(Cc2ccc(-c3ccccn3)cc2)C1 | activity change -7.277%
- CO[C@@H]1CN(C)C(=O)c2cc(NC(=O)Nc3cccc(F)c3)ccc2OC[C@H](C)N(C(=O)C2CC2)C[C@@H]1C | activity change -16.66%
- O=C(C[C@H]1CC[C@@H]2[C@H](COC[C@@H](O)CN2S(=O)(=O)c2cccc(Cl)c2)O1)Nc1ccc(-c2ccccc2)cc1 | activity change -49.28%

For reference, 2 entries once more:

| structure | activity change (%) |
|---|---|
| `COc1ccc2c3c(n(C)c2c1)[C@@H](CO)N(Cc1ccc(Cl)cc1)CC31CN(CC2CC2)C1` | -34.89 |
| `COc1ccccc1-c1ccc2c(c1)[C@H]1[C@H](CCN1C(=O)C1CCC1)[C@H](CO)N2` | -71.2 |